No constants are given. Whether binding was seen depends on the method and setting. Some results given as binding are weak or reduced against the parent protein; the word gives no strength. Blank lines part the entries; values can stand above or below the binder they belong to.
Columns and labels:
[1] = molecular target: PKC-β (endogenous, IMR-32 cell lysate) (human) (UniProt P05771); test: Western blot competition Protocol A, IMR-32 lysate
[2] = molecular target: PKC-β (endogenous, IMR-32 cell lysate) (human) (UniProt P05771); test: Western blot competition Protocol B, IMR-32 extract
[3] = molecular target: PKC-ε (endogenous, human cell extracts) (human) (UniProt Q02156); test: as above
[4] = molecular target: PKC-βII (purified isoform) (Homo sapiens (Human)) (UniProt P05771); test: summary grade, purified isoform ELISA
[5] = molecular target: PKC-βI (purified isoform) (Homo sapiens (Human)) (UniProt P05771); test: summary grade, purified isoform ELISA
[6] = molecular target: PKC-δ (purified isoform) (Homo sapiens (Human)) (UniProt Q05655); test: summary grade, purified isoform ELISA
[7] = molecular target: PKC-α (purified isoform) (Homo sapiens (Human)) (UniProt P17252); test: summary grade, purified isoform ELISA
[8] = molecular target: PKC-α (purified isoform) (Homo sapiens (Human)) (UniProt P17252); test: competitive ELISA, purified isoforms
[9] = molecular target: PKC-βII (endogenous, human cell extracts) (human) (UniProt P05771); test: summary grade, cell extract blot competition
[10] = molecular target: T1, PKC-ζ (endogenous, human cell extracts) (human) (UniProt Q05513); test: summary grade, cell extract blot competition
T1 sequence (looked up): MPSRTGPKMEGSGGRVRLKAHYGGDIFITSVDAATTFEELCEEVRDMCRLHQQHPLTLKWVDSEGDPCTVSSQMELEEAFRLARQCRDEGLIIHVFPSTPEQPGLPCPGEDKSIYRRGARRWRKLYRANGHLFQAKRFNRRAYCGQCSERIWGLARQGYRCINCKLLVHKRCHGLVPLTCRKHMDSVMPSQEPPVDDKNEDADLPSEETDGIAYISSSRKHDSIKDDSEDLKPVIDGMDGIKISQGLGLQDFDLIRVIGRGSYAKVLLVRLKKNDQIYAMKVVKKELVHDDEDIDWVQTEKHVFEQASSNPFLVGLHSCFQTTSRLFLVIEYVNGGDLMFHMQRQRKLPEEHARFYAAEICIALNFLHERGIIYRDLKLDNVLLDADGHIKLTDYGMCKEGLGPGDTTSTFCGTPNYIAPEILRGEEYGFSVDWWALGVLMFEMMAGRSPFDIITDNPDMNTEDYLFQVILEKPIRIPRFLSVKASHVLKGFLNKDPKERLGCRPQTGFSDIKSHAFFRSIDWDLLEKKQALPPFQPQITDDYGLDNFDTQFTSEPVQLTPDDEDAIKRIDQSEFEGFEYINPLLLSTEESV

Sequences of proteins named here, by UniProt entry; tags and fusion partners are left off. A change or cut given only in a name is not applied to a line headed by its entry.
UniProt Q02156: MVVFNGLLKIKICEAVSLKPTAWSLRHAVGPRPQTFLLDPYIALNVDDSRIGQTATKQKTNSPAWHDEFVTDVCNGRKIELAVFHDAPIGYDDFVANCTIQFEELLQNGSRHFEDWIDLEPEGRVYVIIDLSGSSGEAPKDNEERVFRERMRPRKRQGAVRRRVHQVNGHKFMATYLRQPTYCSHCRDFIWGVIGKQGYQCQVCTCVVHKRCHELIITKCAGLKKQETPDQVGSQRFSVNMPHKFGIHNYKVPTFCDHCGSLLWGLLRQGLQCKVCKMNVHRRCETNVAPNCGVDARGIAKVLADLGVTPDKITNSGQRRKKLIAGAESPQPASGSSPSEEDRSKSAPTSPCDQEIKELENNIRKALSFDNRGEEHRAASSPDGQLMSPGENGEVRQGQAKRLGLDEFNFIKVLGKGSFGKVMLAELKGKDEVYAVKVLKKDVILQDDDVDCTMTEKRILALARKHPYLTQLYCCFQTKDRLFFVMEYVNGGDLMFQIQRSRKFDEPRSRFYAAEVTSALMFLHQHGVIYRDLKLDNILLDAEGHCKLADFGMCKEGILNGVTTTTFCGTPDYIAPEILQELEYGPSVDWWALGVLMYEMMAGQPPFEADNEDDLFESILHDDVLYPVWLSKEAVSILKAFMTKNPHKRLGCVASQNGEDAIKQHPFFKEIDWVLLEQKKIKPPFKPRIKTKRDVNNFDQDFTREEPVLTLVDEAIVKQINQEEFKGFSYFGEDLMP
UniProt Q05655: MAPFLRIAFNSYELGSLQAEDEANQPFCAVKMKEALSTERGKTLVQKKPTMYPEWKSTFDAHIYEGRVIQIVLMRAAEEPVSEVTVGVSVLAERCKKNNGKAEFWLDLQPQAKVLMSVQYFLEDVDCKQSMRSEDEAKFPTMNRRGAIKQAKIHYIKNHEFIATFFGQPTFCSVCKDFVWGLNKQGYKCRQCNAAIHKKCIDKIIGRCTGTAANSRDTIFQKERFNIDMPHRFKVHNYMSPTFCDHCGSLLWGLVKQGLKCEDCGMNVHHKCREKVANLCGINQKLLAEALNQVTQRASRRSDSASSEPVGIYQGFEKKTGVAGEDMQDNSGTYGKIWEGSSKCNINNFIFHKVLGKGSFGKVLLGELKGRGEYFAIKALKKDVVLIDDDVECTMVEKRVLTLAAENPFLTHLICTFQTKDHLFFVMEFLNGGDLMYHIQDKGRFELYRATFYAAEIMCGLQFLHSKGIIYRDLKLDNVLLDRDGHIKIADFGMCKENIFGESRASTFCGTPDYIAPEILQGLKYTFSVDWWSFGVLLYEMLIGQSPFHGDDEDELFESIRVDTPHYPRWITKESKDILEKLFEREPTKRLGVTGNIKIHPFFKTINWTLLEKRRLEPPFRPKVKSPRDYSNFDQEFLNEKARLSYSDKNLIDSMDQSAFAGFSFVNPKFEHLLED

[11] = molecular target: PKC-βII (endogenous, human cell extracts) (human) (UniProt P05771); test: Western blot competition Protocol B, IMR-32 extract
[12] = molecular target: PKC-α (purified isoform) (Homo sapiens (Human)) (UniProt P17252); test: fluorescent antibody competitive binding assay, commercial isoforms; PRE 20× concentration
[13] = molecular target: PKC-α (purified isoform) (Homo sapiens (Human)) (UniProt P17252); test: competitive binding assay on purified isoforms: PRE 4 at 20X against the fluorescent anti-PKC-alpha antibody; less antibody signal = peptide bound
[14] = molecular target: PKC-βII (endogenous, human cell extracts) (human) (UniProt P05771); test: Western-blot competition on cell extracts against the anti-PKC-βII primary antibody, catalytic fragment band; peptide at 10X and 20X the antibody concentration; band densitometry (lower band = peptide bound)
[15] = molecular target: PKC-δ (purified isoform) (Homo sapiens (Human)) (UniProt Q05655); test: competitive ELISA, purified isoforms
[16] = molecular target: PKC-βI (purified isoform) (Homo sapiens (Human)) (UniProt P05771); test: competitive ELISA, purified isoforms
[17] = molecular target: PKC-ε (purified isoform) (Homo sapiens (Human)) (UniProt Q02156); test: summary grade, purified isoform ELISA
[18] = molecular target: PKC-ε (purified isoform) (Homo sapiens (Human)) (UniProt Q02156); test: competitive ELISA, purified isoforms
[19] = molecular target: PKC-ε (endogenous, human cell extracts) (human) (UniProt Q02156); test: summary grade, cell extract blot competition
[20] = molecular target: PKC-ε (endogenous, human cell extracts) (human) (UniProt Q02156); test: Western-blot competition on cell extracts against the anti-PKC-ε primary antibody, band 2; peptide at 10X and 20X the antibody concentration; band densitometry (lower band = peptide bound)

binding [1]: binds
binding [2]: binds
binding [3]: binds
Binder: KDAQNLIGISL (C-terminal amide (NH2)) [PRE 2]

binding [4]: binds
Binder: ISIGILNQADK (N-terminal acetyl (Ac); C-terminal amide (NH2)) [PRE 10]

binding [5]: binds
binding [6]: binds
Binder: KDANQLIGISI (N-terminal acetyl (Ac); C-terminal amide (NH2)) [PRE 6]

Binder: KDAQNLIGISI (N-terminal acetyl (Ac); C-terminal amide (NH2)) [PRE 4]
binding [7]: binds
binding [5]: binds
binding [8]: binds
binding [9]: binds
binding [10]: no binding (tested: 20X)
binding [11]: binds
binding [12]: binds
binding [13]: binds
binding [14]: binds

binding [7]: binds
binding [6]: binds
binding [15]: binds
Binder: RDAQNLIGISI (N-terminal acetyl (Ac); C-terminal amide (NH2)) [PRE 11]

binding [5]: binds
binding [6]: binds
binding [16]: binds
binding [15]: binds
binding [1]: binds
Binder: RRKKGGKDFVVKR [PRE 1]

binding [7]: binds
binding [5]: binds
binding [6]: binds
binding [17]: binds
binding [8]: binds
binding [16]: binds
binding [15]: binds
binding [18]: binds
binding [19]: binds
binding [2]: binds
binding [3]: binds
binding [20]: binds
Binder: AKGIQEVKGGDAQNLIGISI (N-terminal acetyl (Ac); C-terminal amide (NH2)) [PRE 3]

Reference: US20100041597A1, “PEPTIDES TARGETED TO PROTEIN KINASE C ISOFORMS AND USES THEREOF” (priority 2005, published 2010)
